In patent US20010036947A1:
Some entries of the source have several records that differ or are many. They are shown here; other results are not. An entry can have further records. Results that share an entry differ for a reason that is not stated; some may be repeats, others may stem from another dose, organism or construct than stated.

Test system: C57 black 6 mice
Assay: In vivo hair generation test, Experiment A
Details: 3 μM topical, 3 applications every 48 hours, after six weeks; listed as GPI 1102

Q: Which “percent of shaved area covered by new hair growth” value does the source give for CCC(C)(C)C(=O)C(=O)N1CCCCC1C(=O)OC(CCCc1ccccc1)CCCc1ccccc1 (stereo not shown) here?
A: ≤ 50% and 90%
